The whole screen tested about 70,000 compounds, of which about 120 (0.17%) were called active. This list was built around the results that the source calls inconclusive (neither active nor inactive); the mix of calls is not that of the screen. Rule as the data show it: active = inhibition above about 34%; inconclusive = no clear call, values can overlap the other calls; inactive = below about 11%.
These compounds were tested against Isocitrate dehydrogenase [NADP] cytoplasmic (Homo sapiens) (UniProt O75874) (assay: PubChem AID 624101). Conditions: IDH1 R132H reductase, diaphorase/resazurin fluorescence, 60 min; at 10 µM; hits give high values.
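Also: 0% = DMSO and 100% = no enzyme.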

Chains of the proteins cited; added tags and fusions are not shown.
UniProt O75874, whole entry, looked up: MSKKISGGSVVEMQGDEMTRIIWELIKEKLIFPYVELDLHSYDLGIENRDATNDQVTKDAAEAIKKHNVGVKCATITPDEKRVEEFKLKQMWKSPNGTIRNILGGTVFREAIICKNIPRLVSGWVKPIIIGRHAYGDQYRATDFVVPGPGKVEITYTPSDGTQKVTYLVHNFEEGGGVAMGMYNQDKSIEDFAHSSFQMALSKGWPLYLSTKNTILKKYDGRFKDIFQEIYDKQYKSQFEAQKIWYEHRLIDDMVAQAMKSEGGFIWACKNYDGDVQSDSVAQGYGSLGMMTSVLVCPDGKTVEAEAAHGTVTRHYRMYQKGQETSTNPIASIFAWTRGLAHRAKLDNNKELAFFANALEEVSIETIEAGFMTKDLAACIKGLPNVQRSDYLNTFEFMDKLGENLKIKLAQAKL

Question: Which inhibition does the source give for `C=CC(C)(C)[C@]12C=C(OC)C(=O)N3/C(=C/c4cnc[nH]4)C(=O)N[C@@]31N(OC)c1ccccc12` here?
Answer: inconclusive: 37%

From PubChem BioAssay AID624101 (Broad Institute, 2012)
